Source: PubChem BioAssay AID1259254 (NCATS, 2017)

Test: 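Genome-wide screen for genes that prevent DNA re-replication in cancer cells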 (primary screen)
Cells: human HCT116 colorectal cancer cells
Reagents: single siRNA against human genes
Time to read-out: 3 days
Read-out: 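Nuclei stained with Hoechst and imaged; cell-cycle phase assigned by DNA content; G2 share scaled per plate, non-targeting siRNA 0%, GMNN siRNA 100%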
Reading the numbers: G2 robust z-score: higher = more G2 cells, more excess DNA replication
Active means: 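Active siRNAs have a G2 robust z of 5 or more median absolute deviations over the median, which in these data means about 38% or higher of GMNN control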
Shown is a random part of about 59,000 deposited reagents. About 1,550 of all reagents (2.6%) count as active. 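G2 share is only a proxy for re-replication; each gene was hit by three separate siRNAs, and active genes were retested.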 Unmarked entries are inactive. Reagents against one gene are numbered here. Further read-outs or replicates are left out here. Not stated in the record: the amount of reagent.

G2 robust z-score, by target gene and reagent
TMEM54: #1 0.0539; #2 -0.0206; #3 -0.7
MAG: #1 -0.688; #2 -0.0871; #3 -0.0979
MATN2: #1 -0.179; #2 -0.0795; #3 -0.823
HYKK: #1 3.03; #2 0.0197; #3 -0.676
MSRB2: #1 7.11 (active); #2 9.05 (active); #3 -0.355
RBBP6: #1 0.223; #2 1.1; #3 -0.446
D2HGDH: #1 -0.151; #2 0.735; #3 3.21

Entries listed above with an active call, once more:
G2 robust z-score, by target gene and reagent
MSRB2: #1 7.11 (active); #2 9.05 (active)

The results go on.
G2 robust z-score, by target gene and reagent
POMGNT1: #1 0.601; #2 2.43; #3 0.404
HAUS8: #1 -0.436; #2 0.595; #3 0.768
CSHL1: #1 0.508; #2 0.021; #3 1.2
FOXP4: #1 0.128; #2 2.27; #3 2.22
CKAP2: #1 1.09; #2 -0.222; #3 2.02
GALNT9: #1 0.105; #2 -1.08; #3 1.22
ZNF319: #1 1.79; #2 0.86; #3 -0.0409
TRIM29: #1 0.368; #2 -0.739; #3 2.32
POLR3K: #1 -0.953; #2 -0.0845; #3 4.04
